Experimental data published in patent US20220087987A1, “A METHOD FOR TREATING SWI/SNF COMPLEX-DEFICIENT CANCERS COMPRISING GLUTATHIONE (GSH) METABOLIC PATHWAY INHIBITOR” (National Cancer Center, priority 2018, published 2022).

What was measured:
[1] = Drug library screen, cell viability (CellTiter-Glo); type: cell-based; conditions: human; HCT116 ARID1A-WT; 10 μM for 5 days; relative to cells treated with solvent (DMSO)
Description: (§1) ARID1A-WT and ARID1A-KO HCT116 cancer cells were used for screening assays. […] Cell viability was assessed after 5 days using the CellTiter-Glo Luminescent Cell Viability Assay (Promega). Luminescence was measured using an Envision Multi-label plate reader (PerkinElmer). The luminescence reading was used to determine the cell viability relative to that of cells treated with solvent (DMSO). Candidate compounds were considered if viability of ARID1A-KO cells was less than […] was more than 80%.

[2] = system: ARID1A-KO HCT116 cells; test: as above; type: cell-based; conditions: Homo sapiens, HCT-116, 120 h, 10 μM for 5 days, relative to cells treated with solvent (DMSO)
Description: as §1

CCN(CC)CC(=O)Nc1c(C)cccc1C [Lidocaine]
viability at 5 days, 10 μM [1]: 103%
viability at 10 µM [2]: 111%
